According to paper PMC8981650:
These are yes or no findings as the source states them, for the method shown. In cells and extracts the contact can be indirect. Some results given as binding are weak or reduced against the parent protein; the word gives no strength.

Chains of the proteins cited; added tags and fusions are not shown.
UniProt Q99L02: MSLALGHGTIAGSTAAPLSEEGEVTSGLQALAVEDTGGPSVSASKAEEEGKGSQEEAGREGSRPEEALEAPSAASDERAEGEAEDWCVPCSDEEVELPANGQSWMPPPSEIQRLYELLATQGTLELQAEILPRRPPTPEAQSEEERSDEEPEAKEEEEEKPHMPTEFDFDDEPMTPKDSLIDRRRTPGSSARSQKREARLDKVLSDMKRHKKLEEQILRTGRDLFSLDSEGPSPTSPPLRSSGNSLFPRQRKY
UniProt P05627: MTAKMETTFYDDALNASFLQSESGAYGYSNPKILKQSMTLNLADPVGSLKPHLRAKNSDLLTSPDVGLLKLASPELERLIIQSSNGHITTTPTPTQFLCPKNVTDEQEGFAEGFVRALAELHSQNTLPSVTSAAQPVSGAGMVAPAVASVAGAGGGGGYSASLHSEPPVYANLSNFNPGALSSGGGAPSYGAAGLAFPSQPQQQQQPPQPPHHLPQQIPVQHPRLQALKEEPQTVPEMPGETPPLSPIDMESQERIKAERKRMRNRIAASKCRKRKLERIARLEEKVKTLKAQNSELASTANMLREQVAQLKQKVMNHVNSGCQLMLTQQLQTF

What was measured:
[1] = biological target: Flag-PA1 (Pax transactivation domain-interacting protein (PTIP) associated protein 1), mouse, from pRK-Flag-Pa1 (mouse) (UniProt Q99L02); test: co-IP; TM4 cells co-transfected with pCS2-Myc-Jun and pRK-Flag-Pa1; lysate in TAP buffer (50 mM HEPES-KOH pH 7.5, 100 mM KCl, 0.1% NP-40); precipitated with anti-FLAG antibody and Protein A-Sepharose at 4 C; blotted with anti-MYC and anti-FLAG
[2] = biological target: endogenous PA1 of TM4 Sertoli cells (mouse (endogenous in TM4)) (UniProt Q99L02); test: co-IP; TM4 cells in 6-well plate transfected with 0.5 ug pCS2-Myc-Jun; endogenous PA1 precipitated with PA1 antibody; blotted with anti-PA1 and anti-JUN

## Myc-JUN, mouse, from pCS2-Myc-Jun (from UniProt P05627 1-334)
[1]
  binding: binds
[2]
  binding: binds
